No constants are given. Whether binding was seen depends on the method and setting. Some entries that bind do so weakly or less than the wild type. Tags and fused reporters may be left off the sequences shown.
Target: T1, BD-FAMA (Arabidopsis thaliana) (UniProt Q56YJ8)
T1 sequence: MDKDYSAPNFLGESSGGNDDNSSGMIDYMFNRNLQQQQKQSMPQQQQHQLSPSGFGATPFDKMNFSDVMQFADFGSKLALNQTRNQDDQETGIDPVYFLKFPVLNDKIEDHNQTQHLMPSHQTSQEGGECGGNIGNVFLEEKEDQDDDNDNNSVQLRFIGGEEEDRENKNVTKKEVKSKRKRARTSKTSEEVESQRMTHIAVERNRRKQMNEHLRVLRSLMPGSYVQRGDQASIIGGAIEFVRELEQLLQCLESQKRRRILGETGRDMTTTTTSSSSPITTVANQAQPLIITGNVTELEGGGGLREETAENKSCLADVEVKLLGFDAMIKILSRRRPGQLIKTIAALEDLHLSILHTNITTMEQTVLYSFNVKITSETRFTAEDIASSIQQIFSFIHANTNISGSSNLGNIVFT
Experiment: two-hybrid; yeast AH109, BD-FAMA (pXDGATcy86) with AD fusions (pGADT7-GW); growth on -LTHA with 3-AT against autoactivation of BD-FAMA, and X-alpha-Gal blue/white test

Chains of the proteins cited; added tags and fusions are not shown.
UniProt Q8W234: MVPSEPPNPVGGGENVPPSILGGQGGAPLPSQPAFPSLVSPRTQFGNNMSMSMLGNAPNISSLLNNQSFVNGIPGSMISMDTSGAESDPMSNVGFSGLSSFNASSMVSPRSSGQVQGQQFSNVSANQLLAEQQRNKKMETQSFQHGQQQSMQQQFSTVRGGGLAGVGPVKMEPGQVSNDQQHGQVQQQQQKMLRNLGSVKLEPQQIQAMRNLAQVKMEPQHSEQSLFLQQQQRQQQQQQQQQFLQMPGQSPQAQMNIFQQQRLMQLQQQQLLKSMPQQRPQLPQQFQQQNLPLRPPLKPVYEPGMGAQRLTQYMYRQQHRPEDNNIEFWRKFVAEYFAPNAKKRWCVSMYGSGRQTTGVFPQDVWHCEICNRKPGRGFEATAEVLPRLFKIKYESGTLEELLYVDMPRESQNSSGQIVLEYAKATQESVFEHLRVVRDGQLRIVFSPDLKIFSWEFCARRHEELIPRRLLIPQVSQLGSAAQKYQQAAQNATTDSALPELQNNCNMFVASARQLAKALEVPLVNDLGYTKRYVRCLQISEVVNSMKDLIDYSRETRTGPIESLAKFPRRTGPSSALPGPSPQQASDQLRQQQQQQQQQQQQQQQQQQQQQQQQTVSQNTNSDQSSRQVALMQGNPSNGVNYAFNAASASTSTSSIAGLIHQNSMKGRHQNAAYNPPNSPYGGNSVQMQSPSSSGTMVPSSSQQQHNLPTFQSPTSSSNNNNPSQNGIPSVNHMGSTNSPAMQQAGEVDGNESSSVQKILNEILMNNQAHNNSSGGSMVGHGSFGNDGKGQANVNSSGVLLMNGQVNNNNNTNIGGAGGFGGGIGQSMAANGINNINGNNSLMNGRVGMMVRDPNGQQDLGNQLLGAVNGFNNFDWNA

- binding: binds
Substance: AD-SEU (from UniProt Q8W234 1-877)
